Values from PubChem BioAssay AID1259254 (NCATS, 2017)
The deposit covers about 59,000 reagents; shown is a part drawn at random. About 1,550 of all reagents (2.6%) count as active. 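G2 share is only a proxy for re-replication; each gene was hit by three separate siRNAs, and active genes were retested.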 Unmarked entries are inactive. The numbers tell different reagents against one gene apart. Not all columns of the deposit are shown. Reagent sequences are not shown. The record does not give: the amount of reagent.

Aim: 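Finding genes that stop cells copying their DNA twice in one cycle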 (primary screen)
Cell system: human HCT116 colorectal cancer cells
Reagent: single siRNA against human genes
Time to read-out: 3 days
Measurement: 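Nuclei stained with Hoechst and imaged; cell-cycle phase assigned by DNA content; G2 share scaled per plate, non-targeting siRNA 0%, GMNN siRNA 100%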
Direction: G2 robust z-score and G2 cells, % of GMNN control: higher = more G2 cells, more excess DNA replication
Rule for the call: 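Active siRNAs have a G2 robust z of 5 or more median absolute deviations over the median, which in these data means about 38% or higher of GMNN control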

| Gene | reagent no. | G2 robust z-score | G2 cells, % of GMNN control |
| --- | --- | --- | --- |
| IFNA2 | 1 | -0.824 | -2.83 |
| IFNA2 | 2 | 1.86 | 16 |
| IFNA2 | 3 | 1.25 | 11.8 |
| CHCHD2 | 1 | -0.0518 | 2.6 |
| CHCHD2 | 2 | 0.476 | 6.32 |
| CHCHD2 | 3 | -0.756 | -2.35 |
| INS | 1 | 0.683 | 7.77 |
| INS | 2 | 1.85 | 16 |
| INS | 3 | 2.81 | 22.7 |
| AP4M1 | 1 | -0.353 | 0.487 |
| AP4M1 | 2 | -0.00766 | 2.91 |
| AP4M1 | 3 | 0.674 | 7.71 |
| GTF3C6 | 1 | -0.77 | -2.45 |
| GTF3C6 | 2 | -0.639 | -1.53 |
| GTF3C6 | 3 | 0.139 | 3.94 |
| RGS13 | 1 | 0.494 | 6.44 |
| RGS13 | 2 | 0.0143 | 3.07 |
| RGS13 | 3 | -1.25 | -5.81 |
| RPS6KB1 | 1 | -1.12 | -4.91 |
| RPS6KB1 | 2 | -1.39 | -6.82 |
| RPS6KB1 | 3 | 1.51 | 13.6 |
| SHISAL1 | 1 | -0.69 | -1.89 |
| SHISAL1 | 2 | 1.94 | 16.6 |
| SHISAL1 | 3 | 1.09 | 10.6 |

Already shown: 6 of the entries above.
| Gene | reagent no. | G2 robust z-score | G2 cells, % of GMNN control |
| --- | --- | --- | --- |
| AP4M1 | 3 | 0.674 | 7.71 |
| GTF3C6 | 1 | -0.77 | -2.45 |
| GTF3C6 | 2 | -0.639 | -1.53 |
| GTF3C6 | 3 | 0.139 | 3.94 |
| RGS13 | 1 | 0.494 | 6.44 |
| RGS13 | 2 | 0.0143 | 3.07 |

The list goes on.
| Gene | reagent no. | G2 robust z-score | G2 cells, % of GMNN control |
| --- | --- | --- | --- |
| LRFN2 | 1 | 0.647 | 7.52 |
| LRFN2 | 2 | 0.531 | 6.71 |
| LRFN2 | 3 | -0.155 | 1.87 |
| C9orf72 | 1 | 1.83 | 15.8 |
| C9orf72 | 2 | 0.52 | 6.63 |
| C9orf72 | 3 | -0.304 | 0.826 |
| IMMP1L | 1 | -0.237 | 1.3 |
| IMMP1L | 2 | -0.282 | 0.985 |
| IMMP1L | 3 | -0.083 | 2.38 |
| KRT73 | 1 | -1.25 | -5.85 |
| KRT73 | 2 | -0.534 | -0.791 |
| KRT73 | 3 | -0.766 | -2.42 |
| OR6C76 | 1 | -0.377 | 0.317 |
| OR6C76 | 2 | -0.698 | -1.94 |
| OR6C76 | 3 | -0.718 | -2.09 |
| BACH1 | 1 | 0.213 | 4.46 |
| BACH1 | 2 | -0.278 | 1.01 |
| BACH1 | 3 | -0.328 | 0.659 |
| PRTFDC1 | 1 | 5.31 (active) | 40.3 |
| PRTFDC1 | 2 | 0.149 | 4.02 |
| PRTFDC1 | 3 | 3.21 | 25.5 |
| NUP210P1 | 1 | 1.72 | 15.1 |
| NUP210P1 | 2 | -0.944 | -3.67 |
| NUP210P1 | 3 | -0.434 | -0.0844 |
| ICA1L | 1 | -0.769 | -2.44 |
| ICA1L | 2 | 1.96 | 16.7 |
| ICA1L | 3 | -0.32 | 0.718 |
| SLFN11 | 1 | -0.919 | -3.5 |
| SLFN11 | 2 | 1.87 | 16.1 |
| SLFN11 | 3 | -0.121 | 2.12 |
| ZNF721 | 1 | -0.868 | -3.14 |
| ZNF721 | 2 | -0.0205 | 2.82 |
| ZNF721 | 3 | 2.39 | 19.8 |
| HS6ST2 | 1 | 7.19 (active) | 53.6 |
| HS6ST2 | 2 | 1.45 | 13.2 |
| HS6ST2 | 3 | -0.306 | 0.817 |
| KAZALD1 | 1 | 1.18 | 11.3 |
| KAZALD1 | 2 | -0.539 | -0.822 |
| KAZALD1 | 3 | -0.525 | -0.723 |
| CNTNAP3 | 1 | 0.735 | 8.14 |
| CNTNAP3 | 2 | 0.214 | 4.47 |
| CNTNAP3 | 3 | 0.129 | 3.88 |
| ARF6 | 1 | -0.204 | 1.53 |
| ARF6 | 2 | -0.655 | -1.64 |
| ARF6 | 3 | -0.899 | -3.36 |
